The campaign covered roughly 340,000 compounds. About 170 (0.05%) were called active. The shares of active, inactive and inconclusive entries below differ from those in the screen. Calls follow the shape of the dose curve; as a rule, active = well fitted inhibition curve with a large enough effect in the signal ratio, with a control signal flat (not every such curve was filed as active); inconclusive = small, poorly fitted or top-dose-only effect, or effect the other way, or a change in a side signal; inactive = flat fitted curve, though single readings scatter; the % refers to the signal ratio. Potencies of inconclusive entries are doubtful fits and often do not repeat.
Experiment: qHTS Assay to Find Inhibitors of Chronic Active B-Cell Receptor Signaling;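 as to activity change, negative = inhibition: plate controls were basal doxycycline-induced cells for no effect and cells given 10 µM MG132 for full effect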
Settings: ABC-DLBCL IkBa-CBG/CBR reporter, luminescence ratio (green luciferase fused to IkBa over red control in TMD8 lymphoma cells), 4 h; activity change, negative = inhibition: at 46.1 µM (top of the series) unless noted
How it was run: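 TMD8 human ABC-DLBCL cells with doxycycline-inducible IκBα–green luciferase fusion and unfused red luciferase, in 0.5% FBS medium; compounds up to 46 uM, 4 h at 37C. Green/red luminescence ratio, filter-overlap corrected, fitted to concentration-response curves.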
Potency is read from the fitted curve at half-maximal effect.

Structure (SMILES) | activity change, negative = inhibition | Potency
O=C(CC1N=C2c3ccccc3N=C(SCc3cccc(Cl)c3)N2C1=O)NCCc1ccccc1 (configuration not stated) | inconclusive: 10.8% | 
Cc1ccc(C)c(OCCn2cc(/C=C(\C#N)C(=O)NCC3CCCO3)c3ccccc32)c1 (configuration not stated) | inconclusive: -0.963% | 
COc1cc(/C=C2\SC(N3CCc4ccccc4C3)=NC2=O)cc(OC)c1OC | inconclusive: -6.87% | 
CC(C)(CS(=O)(=O)[O-])NC(=O)CC[N+](C)(C)CCO | inactive: -2.36% | 
CCOc1ccc(/C=N/NC(=S)NC2CC3CC2C2C=CCC32)cc1 (configuration not stated) | inconclusive: 9.86% | 
N=c1sccn1CC(=O)Nc1ccc(Cl)cc1[N+](=O)[O-] | inactive: 1.26% | 
Cc1ncc(CO)c(/C=N/NC(=O)c2cc(O)c(O)c(O)c2)c1O |  | inconclusive: 35.5 µM [rising, single point]
Cc1c(NC(=O)CSCc2c(F)cccc2Cl)c(=O)n(-c2ccccc2)n1C | inconclusive: 1.55% | 
Cc1[nH]c(=O)nc(SCc2cccc(Cl)c2)c1C#N | inactive: 18.9% | 
COc1cc(OC)cc(C(=O)NC(C(=O)NCCc2ccccn2)C(C)C)c1 (configuration not stated) | inconclusive: 0.0627% | 
COc1ccc(-c2noc(C3CCCN(C(=O)c4ccccc4OC)C3)n2)cc1OC (configuration not stated) | inconclusive: -32.3% | 
O=C(OCC(=O)N1CCOCC1)c1c(Cl)ccc(Cl)c1Cl | inconclusive: 0.0647% | 
Cc1ccc(S(=O)(=O)C2(C(=O)NCCc3ccccc3)CC2)cc1 | inactive: -0.818% | 
CCCCN(C)CCNC(=O)CN1C(=O)CSc2ccc(S(=O)(=O)N3CCCCC3)cc21 | inconclusive: -5.61% | 
COc1ccccc1-c1nnc(NC(=O)c2ccc(S(=O)(=O)N3CCCC3)cc2)o1 | inconclusive: -17.3% | 
C[C@]12c3[nH]c4cc(-c5ccco5)ccc4c3CCN1C(=O)[C@@H](CC(=O)NCCC1=CCCCC1)C[C@@H]2C(=O)N1CCCCC1 |  | inconclusive: 29.1 µM [falling, partial curve, poor fit]
CC(Oc1ccc(F)cc1)C(=O)Nc1nc(-c2ccccn2)cs1 (configuration not stated) |  | inconclusive: 25.9 µM [falling, partial curve, poor fit]
O=c1ncn(-c2ccc(F)cc2)c2ncccc12 | inconclusive: 0.311% | 
Nc1ccc2oc(-c3ccccc3Cl)cc(=O)c2c1O | inactive: 0.0702% | 
CCn1c(SCC(=O)N2CCCCC2)nc2c(c1=O)SCC2 | inconclusive: 1.98% | 
CC(NC(=O)Cc1cccc(C(F)(F)F)c1)c1ccc(F)cc1 (configuration not stated) | inconclusive: -4.97% | 

Exported as a markdown table: entries from further up.

| Structure (SMILES) | activity change, negative = inhibition | Potency |
| --- | --- | --- |
| COc1cc(OC)cc(C(=O)NC(C(=O)NCCc2ccccn2)C(C)C)c1 (configuration not stated) | inconclusive: 0.0627% |  |
| O=c1ncn(-c2ccc(F)cc2)c2ncccc12 | inconclusive: 0.311% |  |

Full records, quoted from the list.
`N=c1sccn1CC(=O)Nc1ccc(Cl)cc1[N+](=O)[O-]` is listed with activity change, negative = inhibition: inactive: 1.26%
`CC(NC(=O)Cc1cccc(C(F)(F)F)c1)c1ccc(F)cc1` (configuration not stated) is listed with activity change, negative = inhibition: inconclusive: -4.97%
`O=C(CC1N=C2c3ccccc3N=C(SCc3cccc(Cl)c3)N2C1=O)NCCc1ccccc1` (configuration not stated) is listed with activity change, negative = inhibition: inconclusive: 10.8%

Continued.

Structure (SMILES) | activity change, negative = inhibition | Potency
COc1cccc(C(=O)Nc2ccc3ccccc3c2)c1 |  | inconclusive: 22.4 µM [falling, partial curve]
CCOC(=O)c1cc(-c2ccccc2)nn1CC1CC(c2ccc(OC)cc2)=NO1 (configuration not stated) | inconclusive: -3.87% | 
c1ccc(-c2noc(COc3ccc4c(c3)OCO4)n2)cc1 |  | inconclusive: 29.1 µM [falling, single point]
CC(=C\c1ccccc1)/C=C1/SC(=S)N(CCC(=O)Nc2ccccn2)C1=O |  | inconclusive: 11.2 µM [falling, partial curve]
CCCNC1=C(N(C(C)=O)c2cccc(F)c2)C(=O)c2ccccc2C1=O | inconclusive: 0.336% | 
O=C(c1cc(C2CC2)nn1-c1ccccc1)N1CCN(Cc2ccccc2F)CC1 | inactive: 5.26% | 
CC[n+]1c(-c2ccccc2)csc1Nc1c(C)n(C)n(-c2ccccc2)c1=O | inactive: 6.26% | 
CC1CCc2sc(C(=O)Nc3ccc(N4CCOCC4)cc3)cc2C1 (configuration not stated) | inconclusive: -6.98% | 
Cc1ccc(N=c2ssnc2Cl)cc1 | inactive: 0.71% | 
C[C@H](CO)N1C[C@H](C)[C@H](CN(C)S(=O)(=O)c2cn(C)cn2)Oc2ccc(NC(=O)Nc3ccc(C(F)(F)F)cc3)cc2CC1=O | inconclusive: -5.97% | 
O=C(NC1CCCCC1)C(c1ccc(F)cc1)N(C(=O)c1csnn1)C1CCCC1 (configuration not stated) | inconclusive: 2.01% | 
CC(NS(=O)(=O)c1ccccc1)C(c1cccs1)N1CCN(c2ccccc2)CC1 (configuration not stated) | inconclusive: 9.85% | 
CCOC(=O)c1[nH]c(C)c(C(=O)c2cc(F)ccc2F)c1C |  | inconclusive: 2.59 µM [falling, full curve]
CCOC(=O)C1CCN(C(=O)c2cc(C)n(C(C)(C)C)n2)CC1 | inconclusive: 8.02% | 
O=C(NCc1ccc2c(c1)OCO2)C1CCCN1C(=O)Nc1cccc(Cl)c1 (configuration not stated) | inconclusive: 1.92% | 
CN1CCN(c2nc(-c3ccncc3)nc3ccccc23)CC1 | inactive: 0.263% | 
CCCc1cc(=O)[nH]c2nnc(SCC(=O)Nc3cccc(NC(C)=O)c3)n12 | inactive: 0.44% | 
Cc1cccc(C)c1NC(=O)C(NC=O)c1ccccc1Cl (configuration not stated) | inactive: -7.73% | 
Brc1cc2c(cc1/C=N/Nc1nc(N3CCOCC3)nc(N3CCOCC3)n1)OCO2 | inconclusive: -17.3% | 
CC(=O)N(C1=C(Cl)C(=O)c2ccccc2C1=O)c1ccc(C(=O)O)cc1 |  | inconclusive: 35.5 µM [rising, partial curve, poor fit]
CC(=O)Oc1cc(C)cc2oc(=O)cc(-c3ccccc3)c12 | inconclusive: -16.8% | 

Structure (SMILES) | activity change, negative = inhibition | Potency
Cc1ccc(C2=NN(C(=S)Nc3ccccc3)C(c3ccco3)C2)cc1 (configuration not stated) |  | inconclusive: 11.2 µM [falling, partial curve]
Cc1ccc(S(=O)(=O)/N=C2/C=C(Sc3ncn[nH]3)C(=O)c3ccccc32)c(C)c1 |  | inconclusive: 2.31 µM [falling, full curve]
CCN(CC)S(=O)(=O)c1cccc(C(=O)N/N=C/c2ccc([N+](=O)[O-])o2)c1 | inconclusive: -1.66% | 
O=C(Nc1ccccc1F)n1ncc2cc(Cl)ccc21 | inactive: -9.35% | 
CSc1cccc(NC(=S)N(CCCN2CCCC(C)C2)Cc2cccs2)c1 (configuration not stated) | inconclusive: -11.9% | 
CC(C)c1ccc2oc(=O)cc(CN3CCCCC3)c2c1 | inactive: 8.96% | 
CCOc1ncccc1C(=O)Nc1ccc(OC)c(S(=O)(=O)N2CCCCC2)c1 | inconclusive: 4.79% | 
CC(CC(=O)C1C(C)C=CCC1(C)C)NNC(N)=O (configuration not stated) | inconclusive: 3.57% | 
O=C(Cc1noc2ccccc12)Nc1ccc(Cl)cc1 | inconclusive: 7.35% | 
Cc1cc(SCc2ccc(Cl)cc2Cl)nc(=O)[nH]1 | inactive: -4.76% | 
COc1cc(OC)c(C(=O)Nc2cccc(C(C)=O)c2)cc1OC | inconclusive: -0.01% | 
Cc1nn2c(Nc3ccccc3)c3c(nc2c1-c1ccccc1)CCC3 | inactive: 3.58% | 
COc1ccc(CN(C)S(=O)(=O)c2nnc(NC(=O)c3ccc(C)cc3)s2)cc1OC | inconclusive: 15% | 
O=C(CCC1N=C2c3ccccc3N=C(SCC(=O)Nc3ccc(F)cc3)N2C1=O)NCc1cccs1 (configuration not stated) | inactive: 1.81% | 
CN(C)CC(C)(C)CNS(=O)(=O)c1cccc2nsnc12 | inconclusive: 5.86% | 
O=C(Cn1ncn2c(cc3ccccc32)c1=O)NCCc1cccs1 | inconclusive: -0.538% | 
NNc1nc2c(-c3cccc(C(F)(F)F)c3)nnn2c2ccccc12 |  | inconclusive: 22.4 µM [falling, single point]
CC[C@@H]1C=C(C)C[C@H](C)C[C@H](OC)[C@H]2O[C@@](O)(C(=O)C(=O)N3CCCC[C@H]3C(=O)O[C@H](/C(C)=C/[C@@H]3CC[C@@H](O)[C@H](OC)C3)[C@H](C)[C@@H](O)CC1=O)[C@H](C)C[C@@H]2OC | inconclusive: -19.4% | 
Cc1ccc(S(=O)(=O)NC(=O)c2ccccc2)cc1C(C)C | inconclusive: 1.07% | 
CCCCN(C(=O)c1ccc2c(c1)OCO2)C1CCS(=O)(=O)C1 (configuration not stated) | inactive: 3.05% | 
COc1cc(NC(C)CCc2ccccc2)cc(OC)c1OC (configuration not stated) | inconclusive: 3.43% | 

Structure (SMILES) | activity change, negative = inhibition | Potency
CCOC(=O)C1=NN(C(=O)COc2ccccc2)C(O)(c2ccc(Br)cc2)C1 (configuration not stated) | inactive: -1.76% | 
CC(=O)N(C(C)=O)c1nc2nc(C)cc(C)n2n1 |  | inconclusive: 35.5 µM [falling, partial curve, poor fit]
Cc1cc(-c2nnnn2-c2cc(Cl)cc(Cl)c2)no1 | inconclusive: 2.67% | 
CCN(CC)C(=O)CSCc1cnn(-c2ccccc2)c1-n1cccc1 | inconclusive: -22% | 
Cc1ccc(Cn2ncc3c(NN)ncnc32)cc1 | inconclusive: -0.575% | 
CCOC(=O)C1=C(C)NC(C)=C(C(=O)OCC)C1C(=O)OCC(=O)NC(C)c1ccccc1 (configuration not stated) | inconclusive: -19% | 
Cc1nc2ccc(C(=O)OCc3ccccc3Br)cc2nc1C | inactive: -0.434% | 
CO/N=C\CC(=O)Nc1ccc(Cl)c(Cl)c1 | inactive: 1.63% | 
COc1ccc(C2=NN(C(=O)c3cccnc3)C(c3ccccc3)C2)cc1 (configuration not stated) | inconclusive: 7.69% | 
COc1ccc(C(=O)Cn2c(Br)nc3c2c(=O)n(C)c(=O)n3C)cc1 | inactive: -0.293% | 
COCCn1c(C)cc(C(=O)COC(=O)c2n[nH]c3ccccc23)c1C |  | inconclusive: 9.2 µM [falling, partial curve]
CN(Cc1ccccc1)S(=O)(=O)c1ccc(N2CCCC2=O)cc1 | inconclusive: 8.09% | 
O=C(CNC(=O)c1ccc(Br)cc1)N/N=C/c1cccnc1 | inconclusive: 8.14% | 
COc1ccc2c(c1)CC/C(=C\C=C\c1ccccc1)C2=O | inactive: -23.2% | 
CCCn1c(N)c(C(=O)CN(C)CC(=O)Nc2ccccc2C(F)(F)F)c(=O)[nH]c1=O | inconclusive: 0.148% | 
COCC(C)n1c(C)cc(C(=O)CSc2nc3ccccc3c(=O)[nH]2)c1C (configuration not stated) | inconclusive: -1.15% | 
O=C1NC[C@H](c2ccccc2)OC(=O)[C@@H](Cc2ccc(F)cc2)C/C=C\C[C@H]1CC(=O)N(CCO)Cc1ccccc1 | inconclusive: -9.14% | 
c1ccc(Nc2ncnc3sccc23)cc1 | inactive: -19.8% | 
CCOC(=O)c1c(C)[nH]c(C)c1C(=O)COC(=O)c1ccc(Cl)nc1 | inconclusive: -4.17% | 

From PubChem BioAssay AID493014 (National Center for Advancing Translational Sciences (NCATS), 2011)
